Results: patent US20190105264A1, “NON-INVASIVE OCULAR DRUG DELIVERY DEVICES” (Aciont Inc., priority 2017, published 2019)

Conditions: most tissues, except lens and vitreous samples in a few cases

- Ocular tissue concentrations of DSP: higher than 1 μg/g
Compound: C[C@@H]1C[C@H]2[C@@H]3CCC4=CC(=O)C=C[C@]4(C)[C@@]3(F)[C@@H](O)C[C@]2(C)[C@@]1(O)C(=O)COP(=O)(O)O [DSP, dexamethasone sodium phosphate]
